These are yes or no findings as the source states them, for the method shown. Some binding calls cover weakened binding; strength is not graded here.
Target: T1, sRANKL (soluble receptor activator of NFKB ligand) (UniProt O14788)
T1 sequence (looked up): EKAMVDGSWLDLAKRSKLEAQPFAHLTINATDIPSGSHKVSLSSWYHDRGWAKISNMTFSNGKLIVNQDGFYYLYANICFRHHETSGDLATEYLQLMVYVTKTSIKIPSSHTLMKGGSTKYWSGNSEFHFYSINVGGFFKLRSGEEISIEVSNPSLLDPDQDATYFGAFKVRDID
Experiment: plate-binding assay: TSG-6 protein coated on microtitre plates, sRANKL 5 pmol/well, detected with a RANKL-specific antibody

The chains behind the UniProt entries cited, without tags or fusion partners. Where a name states a change or a piece, a line headed by the entry shows the natural chain unless it says otherwise.
UniProt P98066: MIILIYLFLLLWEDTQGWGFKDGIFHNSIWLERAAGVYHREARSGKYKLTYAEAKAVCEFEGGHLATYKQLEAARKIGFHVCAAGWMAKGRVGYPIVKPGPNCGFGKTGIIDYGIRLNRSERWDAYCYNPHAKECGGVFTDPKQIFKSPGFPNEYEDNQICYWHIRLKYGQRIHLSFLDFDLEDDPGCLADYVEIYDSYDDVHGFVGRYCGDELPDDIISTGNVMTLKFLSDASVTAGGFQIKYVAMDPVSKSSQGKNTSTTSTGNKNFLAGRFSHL

| binding | Substance |
| --- | --- |
| binds | CUB_C_TSG6, isolated CUB_C domain of human TSG-6 (expressed in E. coli) (from UniProt P98066 129-277) |
| binds | Link_TSG6, isolated Link module domain of human TSG-6 (expressed in E. coli) (from UniProt P98066 36-133) |
| binds | Q144 allotype of the full-length human TSG-6 protein (recombinant, expressed in Drosophila S2 cells) (from UniProt P98066 18-277) |

Reference: patent US20150057229A1
